The list shows only some results of the screen, not a fair sample: it is rich in T/C values a quarter to a half above the control, in often repeated tests (any T/C) and in doses without a T/C. Further doses and runs are listed elsewhere. T/C gives the treated animals as a percentage of the vehicle group. Some doses have a count of surviving animals in place of a T/C: the source holds a T/C of zero for them, seemingly a mark for toxic or unscored doses. Some survivor counts are full or nearly so, which does not show that the dose was tolerated: the source hardly ever lists a survival T/C far under the control, and the zero likely stands for such cases as well. Counts of survivors are from the toxicity check (mostly the fifth day) where no day follows; animals may have died later. Schedules are NCI's codes, taken here to give the interval after Q, in days (D) or hours (H), and the number of doses after X. Signs of the kind (2×) stand for listed records that agree. Where survival is the endpoint, the PubChem record calls one and a half times the control and up active, and a quarter to a half above the control has no call in these data; cut-offs in other NCI protocols can differ. Some T/C values are followed by the survivors on the day toxicity was checked, most often the fifth; where none is given, no animal had died by that day.
System: CD2F1 mice, L1210 leukemia ip, survival T/C
Assay: NCI In Vivo Anticancer Drug Screen. Data for tumor model L1210 Leukemia (intraperitoneal) in CD2F1 (CDF1) mice
Conditions: higher T/C = longer survival
Procedure, shortened: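 Vehicle-treated tumor-bearing mice served as controls (C) for compound-treated mice (T). Reported figure is T divided by C.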

[1] = T/C endpoint: mean survival time, dose: 400.0 mg/kg/injection, schedule: Q01DX009 (ip), vehicle: saline with Tween-80

## CC[C@@]1(O)C(=O)OCc2c1cc1n(c2=O)Cc2c-1nc1ccccc1c2Cl
T/C endpoint: mean survival time, dose: 12.5 mg/kg/injection, schedule: Q01DX001 (ip), vehicle: saline
  T/C: 127 % of control
T/C endpoint: mean survival time, dose: 25.0 mg/kg/injection, schedule: Q01DX001 (ip), vehicle: saline with Tween-80
  T/C: 138 % of control
T/C endpoint: mean survival time, dose: 25.0 mg/kg/injection, schedule: Q01DX001 (ip), vehicle: saline
  T/C: 133 % of control
T/C endpoint: mean survival time, dose: 50.0 mg/kg/injection, schedule: Q01DX001 (ip), vehicle: saline with Tween-80
  T/C: 129 % of control
T/C endpoint: mean survival time, dose: 50.0 mg/kg/injection, schedule: Q01DX001 (ip), vehicle: saline
  T/C: 131 % of control
T/C endpoint: mean survival time, dose: 100.0 mg/kg/injection, schedule: Q01DX001 (ip), vehicle: saline with Tween-80
  T/C: 130 % of control
T/C endpoint: mean survival time, dose: 100.0 mg/kg/injection, schedule: Q01DX001 (ip), vehicle: saline
  T/C: 143 % of control
T/C endpoint: mean survival time, dose: 200.0 mg/kg/injection, schedule: Q01DX001 (ip), vehicle: saline with Tween-80
  T/C: 138 % of control [5 of 6 alive]
T/C endpoint: mean survival time, dose: 200.0 mg/kg/injection, schedule: Q01DX001 (ip), vehicle: saline
  T/C: 137 % of control
T/C endpoint: mean survival time, dose: 400.0 mg/kg/injection, schedule: Q01DX001 (ip), vehicle: saline
  T/C: 141 % of control

## O=C1C=CC(=O)N1c1ccc([N+](=O)[O-])cc1
T/C endpoint: mean survival time, dose: 50.0 mg/kg/injection, schedule: Q04DX003 (ip), vehicle: Klucel (hydroxypropylcellulose) (HPC)
  survivor count: 0 of 6
T/C endpoint: mean survival time, dose: 100.0 mg/kg/injection, schedule: Q04DX003 (ip), vehicle: Klucel (hydroxypropylcellulose) (HPC)
  survivor count: 0 of 6
T/C endpoint: mean survival time, dose: 200.0 mg/kg/injection, schedule: Q04DX003 (ip), vehicle: Klucel (hydroxypropylcellulose) (HPC)
  survivor count: 0 of 6

## CCCCCCCCCCCCCCCC[N+](C)(C)C
T/C endpoint: mean survival time, dose: 10.0 mg/kg/injection, schedule: Q01DX009 (ip), vehicle: saline with Tween-80
  survivor count: 1 of 6
T/C endpoint: mean survival time, dose: 20.0 mg/kg/injection, schedule: Q01DX009 (ip), vehicle: saline with Tween-80
  survivor count: 2 of 6
T/C endpoint: mean survival time, dose: 100.0 mg/kg/injection, schedule: Q04DX003 (ip), vehicle: saline
  survivor count: 0 of 6
T/C endpoint: mean survival time, dose: 200.0 mg/kg/injection, schedule: Q04DX003 (ip), vehicle: saline
  survivor count: 0 of 6
T/C endpoint: mean survival time, dose: 400.0 mg/kg/injection, schedule: Q04DX003 (ip), vehicle: saline
  survivor count: 0 of 6

## C/C(=C\Cl)CNC(C)C
T/C endpoint: mean survival time, dose: 100.0 mg/kg/injection, schedule: Q01DX009 (ip), vehicle: saline with Tween-80
  survivor count: 3 of 6
T/C endpoint: mean survival time, dose: 200.0 mg/kg/injection, schedule: Q01DX001 (ip), vehicle: acetone
  survivor count: 0 of 6
T/C endpoint: mean survival time, dose: 400.0 mg/kg/injection, schedule: Q01DX001 (ip), vehicle: acetone
  survivor count: 0 of 6

## [Cl][Pt+2][Cl].[NH-]c1cc(Cl)c(Cl)c(Cl)c1[NH-]
T/C endpoint: mean survival time, dose: 80.0 mg/kg/injection, schedule: Q01DX009 (ip), vehicle: saline with Tween-80
  survivor count: 6 of 8

## c1ccc([Si]2(c3ccccc3)c3ccccc3-c3ccccc32)cc1
[1]
  survivor count: 6 of 6

## CSc1nc(Cl)c2cc(Cl)[nH]c2n1
T/C endpoint: median survival time, dose: 12.5 mg/kg/injection, schedule: Q01DX005 (ip), vehicle: saline with Tween-80
  survivor count: 2 of 6
T/C endpoint: median survival time, dose: 25.0 mg/kg/injection, schedule: Q01DX005 (ip), vehicle: saline with Tween-80
  survivor count: 0 of 6
T/C endpoint: median survival time, dose: 50.0 mg/kg/injection, schedule: Q01DX005 (ip), vehicle: saline with Tween-80
  survivor count: 0 of 6
T/C endpoint: median survival time, dose: 200.0 mg/kg/injection, schedule: Q01DX005 (ip), vehicle: saline with Tween-80
  survivor count: 2 of 6

## O/N=C\c1cccc2ccccc12
T/C endpoint: mean survival time, dose: 400.0 mg/kg/injection, schedule: Q04DX003 (ip), vehicle: saline with Tween-80
  survivor count: 3 of 6

## CCCCCC(=O)SCC(=O)OCC(=O)[C@]1(O)Cc2c(O)c3c(c(O)c2[C@@H](OC2CC(N)C(O)C(C)O2)C1)C(=O)c1c(OC)cccc1C3=O (stereo partly specified)
T/C endpoint: mean survival time, dose: 1.56 mg/kg/injection, schedule: Q01DX005 (ip), vehicle: water
  T/C: 141 % of control
T/C endpoint: mean survival time, dose: 3.13 mg/kg/injection, schedule: Q01DX005 (ip), vehicle: water, evaluated on day 30
  T/C: 148 % of control
T/C endpoint: mean survival time, dose: 3.13 mg/kg/injection, schedule: Q01DX005 (ip), vehicle: water, evaluated on day 45
  T/C: 132 % of control
T/C endpoint: mean survival time, dose: 12.5 mg/kg/injection, schedule: Q01DX005 (ip), vehicle: water
  survivor count: 5 of 6 (2×)

## c1ccc(C2CC([P+](c3ccccc3)(c3ccccc3)c3ccccc3)=NN2)cc1 (stereo unspecified)
T/C endpoint: mean survival time, dose: 50.0 mg/kg/injection, schedule: Q01DX001 (ip), vehicle: Klucel (hydroxypropylcellulose) (HPC)
  survivor count: 2 of 6
T/C endpoint: mean survival time, dose: 75.0 mg/kg/injection, schedule: Q01DX001 (ip), vehicle: Klucel (hydroxypropylcellulose) (HPC)
  survivor count: 0 of 6
T/C endpoint: mean survival time, dose: 110.0 mg/kg/injection, schedule: Q01DX001 (ip), vehicle: Klucel (hydroxypropylcellulose) (HPC)
  survivor count: 1 of 6

## COC(=O)c1cc(Cl)cc(C(=O)OC)c1
[1]
  survivor count: 6 of 6

From PubChem BioAssay AID256 (DTP/NCI, 2004)
